Results deposited as PubChem BioAssay AID1224830 (NIAID, 2016)

Test: 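Host factors that control LPS-induced TNF expression in human macrophages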 (primary screen)
Cells: human THP-1 monocytic leukaemia cells, TNF dual-luciferase reporter clone, PMA-differentiated to macrophage-like cells
Reagent: siRNA pool against human genes, 50 nM
Time to read-out: LPS for 4 h, given about 3 days after siRNA transfection
Conditions: bacterial LPS (TLR4 ligand), 10 ng/ml
Measurement: 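Ratio of firefly to renilla light, scaled to the plate median and expressed as a robust z-score per replicate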
Reading the numbers: TNF reporter robust z-score: higher = stronger TNF reporter response to LPS
Rule for the call: 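Each well counts as active if its z-score is over 2.8 or under -1.5; controls are left without a call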
The whole screen tested about 18,000 reagents; shown is a random part of them. About 2,900 of them (16%) were called active. 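Calls are made per well; low scores hint the gene aids the LPS response, high scores that it dampens it.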 Repeated entries: four replicate wells of each siRNA pool.

GNGT1 (GeneID 2792)
- TNF reporter robust z-score: 1.75
- activity call: inactive

GNGT1 (GeneID 2792)
- TNF reporter robust z-score: 1.74
- activity call: inactive

GNGT1 (GeneID 2792)
- TNF reporter robust z-score: 0.95
- activity call: inactive

GNGT1 (GeneID 2792)
- TNF reporter robust z-score: 0.69
- activity call: inactive

FHIP2A (GeneID 57700)
- TNF reporter robust z-score: -0.27
- activity call: inactive

FHIP2A (GeneID 57700)
- TNF reporter robust z-score: -0.1
- activity call: inactive

FHIP2A (GeneID 57700)
- TNF reporter robust z-score: 0.27
- activity call: inactive

FHIP2A (GeneID 57700)
- TNF reporter robust z-score: 0.49
- activity call: inactive

CTPS2 (GeneID 56474)
- TNF reporter robust z-score: 0.44
- activity call: inactive

CTPS2 (GeneID 56474)
- TNF reporter robust z-score: 0.6
- activity call: inactive

CTPS2 (GeneID 56474)
- TNF reporter robust z-score: -0.71
- activity call: inactive

CTPS2 (GeneID 56474)
- TNF reporter robust z-score: 0.13
- activity call: inactive

SLC5A3 (GeneID 6526)
- TNF reporter robust z-score: -0.28
- activity call: inactive

SLC5A3 (GeneID 6526)
- TNF reporter robust z-score: 0
- activity call: inactive

SLC5A3 (GeneID 6526)
- TNF reporter robust z-score: -0.42
- activity call: inactive

SLC5A3 (GeneID 6526)
- TNF reporter robust z-score: 0.54
- activity call: inactive

LHX9 (GeneID 56956)
- TNF reporter robust z-score: 0.43
- activity call: inactive

LHX9 (GeneID 56956)
- TNF reporter robust z-score: 1.02
- activity call: inactive

LHX9 (GeneID 56956)
- TNF reporter robust z-score: 0.71
- activity call: inactive

LHX9 (GeneID 56956)
- TNF reporter robust z-score: 0.5
- activity call: inactive

DSCAM (GeneID 1826)
- TNF reporter robust z-score: 0.82
- activity call: inactive

DSCAM (GeneID 1826)
- TNF reporter robust z-score: 0.04
- activity call: inactive

DSCAM (GeneID 1826)
- TNF reporter robust z-score: 0.45
- activity call: inactive

DSCAM (GeneID 1826)
- TNF reporter robust z-score: 0.19
- activity call: inactive

Part of the list above in another layout:
Gene	TNF reporter robust z-score	activity call
LHX9 (GeneID 56956)	0.43	inactive
LHX9 (GeneID 56956)	1.02	inactive
LHX9 (GeneID 56956)	0.71	inactive
LHX9 (GeneID 56956)	0.5	inactive
DSCAM (GeneID 1826)	0.82	inactive

The list goes on.
CRP (GeneID 1401)
- TNF reporter robust z-score: 0.42
- activity call: inactive

CRP (GeneID 1401)
- TNF reporter robust z-score: 0.27
- activity call: inactive

CRP (GeneID 1401)
- TNF reporter robust z-score: 0.82
- activity call: inactive

CRP (GeneID 1401)
- TNF reporter robust z-score: 0.95
- activity call: inactive

RGS10 (GeneID 6001)
- TNF reporter robust z-score: 4.97
- activity call: active

RGS10 (GeneID 6001)
- TNF reporter robust z-score: 4.07
- activity call: active

RGS10 (GeneID 6001)
- TNF reporter robust z-score: 0.42
- activity call: inactive

RGS10 (GeneID 6001)
- TNF reporter robust z-score: 0.05
- activity call: inactive

JDP2 (GeneID 122953)
- TNF reporter robust z-score: -0.46
- activity call: inactive

JDP2 (GeneID 122953)
- TNF reporter robust z-score: 0.08
- activity call: inactive

JDP2 (GeneID 122953)
- TNF reporter robust z-score: -0.52
- activity call: inactive

JDP2 (GeneID 122953)
- TNF reporter robust z-score: -0.21
- activity call: inactive

ZNF417 (GeneID 147687)
- TNF reporter robust z-score: -0.63
- activity call: inactive

ZNF417 (GeneID 147687)
- TNF reporter robust z-score: 0.74
- activity call: inactive

ZNF417 (GeneID 147687)
- TNF reporter robust z-score: 0.27
- activity call: inactive

ZNF417 (GeneID 147687)
- TNF reporter robust z-score: 0.49
- activity call: inactive

CYP24A1 (GeneID 1591)
- TNF reporter robust z-score: -0.83
- activity call: inactive

CYP24A1 (GeneID 1591)
- TNF reporter robust z-score: -0.87
- activity call: inactive

CYP24A1 (GeneID 1591)
- TNF reporter robust z-score: -0.75
- activity call: inactive

CYP24A1 (GeneID 1591)
- TNF reporter robust z-score: -0.63
- activity call: inactive

NEURL1 (GeneID 9148)
- TNF reporter robust z-score: -1.46
- activity call: inactive

NEURL1 (GeneID 9148)
- TNF reporter robust z-score: 3.55
- activity call: active

NEURL1 (GeneID 9148)
- TNF reporter robust z-score: -0.09
- activity call: inactive

NEURL1 (GeneID 9148)
- TNF reporter robust z-score: 0.06
- activity call: inactive
